Results are given in words; binding and its absence hold for the method and conditions named. In cells and extracts the contact can be indirect. A yes stands for co-enrichment or nearness to the bait. Other partners may have been found.
B1: Tetratricopeptide repeat protein 21B (protein, UniProt Q0HA38 1-1315)
chain: MDSQGLKTLINYYCQERYYHHVLLVASEGMKKYSSDPVFRFYHAYGTLMEGKAQEALREFEAIKNKQDVSLCSLMALMYVHKMSPNPDREAILELDTKMKEQRKEAGRKALYHAGLFLWHIGRHDKAREYIDRMSKMPHDSNEGPILKAWLDITRGKEPYAKKALRYFEEGLQDGNDIFALLGKVLCLEIRQNYSGALETVSQIIVNFPSFLPAFEKKMKLQLALQDWDQTVETAQRLLLQDNHNVEALRMLALYYLCREGDVEKAATKLENLGNALDVMEPQNAQLFYKITLAFSRTCGRNQLILQKVQSFLEKAFSLTPQQAEIATELGYQMILQGKVKEAWKWYRTAMTLNESNISAVTGLIRCQLIEGQLQDADQQLEFFSEFQQSMGKSAELMYLHAVLATKKNNRQDEVINLLNDVVNTHFSHLEDLPLGIQYFEKLNPDFLLEVVTEYLNLCPIQPAGPGQPLSPVLRRCSSVLETIIRSVPGLPQAVFLMAKVKYLSGDTEAAYNNLQHCLEHSPSYAEAHLLMAQVYLSQDKVKLCSQSLELCLSYNFNVREYPLYHLIKAQSQKKMGEVAEAIKTLHMAMNLPGMRRSRASSKSKHRTEVDASHRLSIFLELVEVHRLNGEQHEAAKVLQDAIHEFSGTCEELRVTIANADLALAQGDTDRALSMLRNVTTEQPYFIEAKEKMADIYLKHRKEKMLYITCYREIAERMPSPRSFLLLGDAYMNIQEPEEAIVAYEQALNQNPKDGTLARKIGKALVKTHNYSKAITYYEAALKSGQQNCLCYDLAELLLRLKLYEKAEKVLQHSLAHEPVSELSALMVDGRSQVLLAKVYSKMERPSDAIAALQQARELQARILKRVQMEQPDAVPSQKHFAAEICAEIAKHSAAQRDYEKAITFYREALVHCETDSKIMLELAQLYLAQEDLDASLRHCALLLQRDQDNEPATMLMADLMFRKQDYEQAVYHLQQLLDRKPDNFMTLSRLIDLLRRCGKLEDVPRFFLMAEKHNSRTKLEPGFQYCKGLHFWYTGEPNDALRHFNKARKDSDWGQNALYNMIEICLNPDNETIGGEVFENLNGDLGTSPEKQESVQLAVRTAEKLLKELKPQTVQGRLQLRIMENCCLMATKQKSSVEQALNTFTEIAASEKDHIPALLGMATAYMILKQTPKARNQLKRIAKMPWNPIEAEDLEKSWLLLADIYIQSAKYDMAEELLKRCLCHNRSCCKAYEYMGYIMEKEQAYTDAAFNYEMAWKHSNQTNPAVGYKLAFNYLKAKRYVDAIDVCHQVLEAHPTYPKIRKDILDKARASLRP
B2: Tetratricopeptide repeat protein 30A1 (protein, UniProt Q99J38 1-664)
chain: MAWQSSSKVPDGEFTAVVYRLIRDSRYSEAVQLLSAELQRSSRSRAGLSLLAYCYYRLQEFELAAECYEQLSQMHPELEQYRLYQAQALYKACLYPEATRVTFLLDNPAYQTRVLRLQAAIKYSEGDLPGARSLVEQLLSGEAGEDSGGENDPDGLVNMGCLLYKEGHYEAACSKFLAALQASGYQPDLSYNLALAYYSSRQYAPALKHIADIIERGIRQHPELGVGMTTEGIDVRSVGNTVVLHQTALIEAFNLKAAIEYQLRNFEVAQETLTDMPPRAEEELDPVTLHNQALMNMDAKPTEGFEKLQFLLQQNPFPPETFGNLLLLYCKYEYFDLAADVLAENAHLTYKFLTPYLYDFLDAMITCQTAPEEAFIKLDGLAGMLTEQLRRLTKQVQEARHNRDDEIIKKAMNEYDETLEKYIPVLMAQAKIYWNLENYPMVEKIFRKSVEFCNDHDVWKLNVAHVLFMQENKYKEAIGFYEPIVKKNYDNILSVSAIVLANLCVSYIMTSQNEEAEELMRKIEKEEEQLSYGDPDKKIYHLCIVNLVIGTLYCAKGNYDFGISRVIKSLEPYHKKLGTDTWYYAKRCFLSLLENMSKHMIVLCDGVVQECVQFLEYCELYGRNIPAVLEQPLEEERIHTGKNTVTYESRLLKALIYEVIGWNM
B3: TRAF3-interacting protein 1 (protein, UniProt Q149C2 1-625)
chain: MNAAVVRRTQEALGKVIRRPPLTEKLLNKPPFRYLHDIITEVIRITGFMKGLYTDAEMKSENVKDKDAKISFLQKAIDVVMMVSGEPLAAKPARIVAGHEPERTNELLQLIGKCCLSKLSSDEAVKRVLAGDKGDSRGRAQRTSKAQEPNNKSGKEEESRIHKEDKRSSEAKERSASAEHKQKEELKEDSKPREKERDKEKAKEADRDRHRDPDRDRNRDGEREKARARAKDRDRNNRDRDREAERDRERDRRSEGGKEKERVKDRDRDRDKGRDRERRKSKNGEHTRDPDREKSRDADKPEKKSSSSGEISRKLSDGSFKDVKAEMEADISVGASRSSTLKPSKRRSKHSLEGDSPSDAEVEAGPAGQDKPEVMENAEVPSELPSSLRRIPRPGSARPAPPRVKRQESTETLVVDRSGSGKTVSSVIIDSQNSDNEDDEQFVVEAAPQLSEIADIDMVPSGELEDEEKHGGLVKKILETKKDYEKLQQSLKPGEKERSLIFESAWKKEKDIVSKEIEKLRVSIQTLCKSALPLGKIMDYIQEDVDAMQNELQLWHSENRQHAEALSQEQSITDSAVEPLKAELSELEQQIRDQQDKICAVKANILKNEEKIQKMVHSINLSSRR
B4: Armadillo repeat-containing protein 4 (protein, UniProt B2RY50 1-1037)
chain: MGVALTRLAQWTAAGYETGTLEITPLNESILNEITKFVESFSYKYPQEAKFVFVEPLEWKTYLEPSAFELGYVVSATTAESEETGKDGQPLLFLSVPYIKVRSFGQLSQLLSIATDSKLQEAQACIEANRDPVVKILGPDYNEMKEDPTRLTLLDTIIKDKETYMKRKVAILLKQLDLHLLNHSLKYISLEISLNPGTFKKDIELLKRFSGKGEQTVLESIEYTSDYEFSNGCRAPPWRQIQGEICYVLVKPHDMETLCLTCSTEGVFLNGGKTEEEGEINYERKGEIYKDLVTCLKDKSPVFSENMSKHEIRFTEEQQKDNQIFEKPKTEDGHSSVAGSEKSKIEKISFGKSPMTKRLEPSLNWRVTVDYKDHKSSIKDSQEEKQGKLEKSSSVSVAPSRAQSHRKGGEKVEETVSESSSESEEDEEPPDHRQEANADLPSEYWQIQKLVKYLKGGNQTATVIALCSMRDFNLAQETCQLAIRDVGGLEVLINLLDTDEVKCKIGSLKILKEISHNPQIRRNIVDLGGLPIMVNILDSPHKSLKCLSAETIANVAKFKRARRAVRQHGGITKLVALLDCGQNSTEPTQPSLYETRDVEVARCGALALWSCSKSHSNKEAIRKAGGIPLLARLLKTSHENMLIPVVGTLQECASEENYRAAIKAERIIENLVKNLNSENEQLQEHCAMAIYQCAEDEETRDLVRLHGGLKPLASLLNNTDNKERLAAVTGAIWKCSISKENVIKFREYKAIETLVGLLTDQPEEVLVNVVGALGECCQEYENRVLVRKCGGIQPLVNLLVGINQALLVNVTKAVGACAVEPESMAIIDRLDGVRLLWSLLKNPHPDVKASAAWALCPCIENAKDAGEMVRSFVGGLELVVNLLKSDNKEVLASVCAAITNIAKDQENLAVITDHGVVPLLSKLANTNNDKLRRHLAEAISRCCMWGRNRVAFGEHKAVAPLVRYLKSNDTNVHRATAQALYQLSEDADNCITMHENGAVKLLLDMVGSPDQDLQEAAAGCISNIRRLALATEKARYN
B5: Centrosomal protein of 131 kDa (protein, UniProt Q62036 1-1060)
chain: MKGSRTITATPEGSPEAVDLSLIGLPPPMSQRPGSASATRSIFRSMSVATGSEPRKKALEATGPGGPRAINNLRRSNSTTQVNQSWTGSPRPAEPTDFLMLFEGSTSGRRRVASLSKASSEKEATWNVLDEQPRGLALPASAQSPSTLDSALGPRRKECPLAPSFTANNRSNKGAVGNCVTTMVHNHYASSKMVSPPKSSNQTAPSLNNIVKAAAREGGEGSDLGKPRKNLSSASQSARGTTGLLRRREVTEEEAERFIHQVNQAAVTIQRWYRCQVQRRRAGAAALEHLLASKREGQRQRLGGGNLLELHRQEEAARKKAREEKARQARQAAIQVLQQKRAQKASEAEHRRPKDRPETRAPEQPRPMQEPGCVTHPKANNAGASIYPTGPADPCPPASESSPEQWQSPEDKPQDIHSQGEARQDLAVSGSSRGKARARATLDDLLDTLKLLEEEPEPLPHPKAYHKDRYAWTDEEEDANSLTADNLEKFGKLSAAPGPPDDGTLLSEAKLQSIMTFLDEMEKSGQERPAPWRESLVLEAGSGSEGSTSVMRLKLELEEKKQAMALLQRALAQQRDLTVRRVKETEKELTRQLRQQKEQYEATIQRHLSFIDQLIEDKKVLSEKCEAVVAELKHGDQRCRERVAQMQEQHELEIKKLKELMSATEKIRREKWINEKTKKIKEITVRGLEPEIQKLIAKHKQEVRRLRGLHEAELQQREEQAAQRHLRQAEELRQHLDREREVLGQQERERAQQRFEQHLEQEQRALEQQRRRLYNEVAEEKERLGQQAARQRAELEELRQQLEESSAALTRALRAEFERSREEQERRHQMELKALKDQLEAERQAWVASCAKKEEAWLLTRERELKEEIRKGRDQEIELVIHRLEADMTLAKEESERAAESRVKRVRDKYETELSELEQSERKLQERCSELKGRLGEAEGEKERLQSLVRQKEKELEDLRAVNTQMCSERASLAQVVRQEFAEQLAASQEETQRVKVELAELQARQQVELDEVHRRVKTALARKEAAVNSLRKQHEAAVKRADHLEELLEQHKGSSLSSK
B6: T-complex protein 1 subunit theta (protein, UniProt P42932 1-548)
chain: MALHVPKAPGFAQMLKDGAKHFSGLEEAVYRNIQACKELAQTTRTAYGPNGMNKMVINRLEKLFVTNDAATILRELEVQHPAAKMIVMASHMQEQEVGDGTNFVLVFAGALLELAEELLRIGLSVSEVISGYEIACKKAHEILPELVCCSAKNLRDVDEVSSLLRTSIMSKQYGSETFLAKLIAQACVSIFPDSGNFNVDNIRVCKILGSGIYSSSVLHGMVFKKETEGDVTSVKDAKIAVYSCPFDGMITETKGTVLIKTAEELMNFSKGEENLMDAQVKAIAGTGANVIVTGGKVADIALHYANKYNIMLVRLNSKWDLRRLCKTVGATALPKLTPPVQEEMGHCDSVYLSEVGDTQVVVFKHEKEDGAISTIVLRGSTDNLMDDIERAVDDGVNTFKVLTRDKRLVPGGGATEIELAKQITSYGETCPGLEQYAIKKFAEAFEAIPRALAENSGVKANEVISKLYSVHQEGNKNVGLDIEAEVPAVKDMLEASILDTYLGKYWAIKLATNAAVTVLRVDQIIMAKPAGGPKPPSGKKDWDDDQND

What follows are binders tested against T1, Centrosomal protein of 78 kDa (Cep78), endogenous mouse testicular protein (mouse (endogenous in testis)) (UniProt Q6IRU7) (assay: affinity purification with mass spectrometry; anti-Cep78 (custom antibody against p457-741 of mouse Cep78) immunoprecipitation from testicular lysates of Cep78^+/− and Cep78^−/− mice, Pierce IP lysis buffer, Pierce co-IP kit, quantitative LC-MS of silver-stained gel lanes).
T1 sequence: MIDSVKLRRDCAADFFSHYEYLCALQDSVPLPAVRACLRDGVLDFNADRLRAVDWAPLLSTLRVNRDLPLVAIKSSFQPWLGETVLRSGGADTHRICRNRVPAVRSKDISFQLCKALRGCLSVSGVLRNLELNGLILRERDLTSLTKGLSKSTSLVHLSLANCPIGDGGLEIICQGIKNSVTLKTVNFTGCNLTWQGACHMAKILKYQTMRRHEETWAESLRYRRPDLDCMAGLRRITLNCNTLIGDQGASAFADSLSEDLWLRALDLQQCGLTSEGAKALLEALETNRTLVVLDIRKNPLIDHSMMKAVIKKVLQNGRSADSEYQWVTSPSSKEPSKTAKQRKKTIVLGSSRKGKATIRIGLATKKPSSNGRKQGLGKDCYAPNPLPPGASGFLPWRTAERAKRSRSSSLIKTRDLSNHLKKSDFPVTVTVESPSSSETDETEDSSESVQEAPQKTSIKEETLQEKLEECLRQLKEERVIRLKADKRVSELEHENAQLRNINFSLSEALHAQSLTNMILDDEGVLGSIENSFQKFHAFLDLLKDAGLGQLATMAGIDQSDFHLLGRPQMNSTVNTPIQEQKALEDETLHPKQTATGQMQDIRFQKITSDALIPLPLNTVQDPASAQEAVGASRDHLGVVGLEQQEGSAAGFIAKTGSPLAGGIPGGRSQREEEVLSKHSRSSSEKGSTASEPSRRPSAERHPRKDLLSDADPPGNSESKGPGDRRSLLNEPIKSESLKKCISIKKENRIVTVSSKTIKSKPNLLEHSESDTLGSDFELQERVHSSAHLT

Binder	binding
B1	binds
B2	binds
B3	binds
B4	binds
B5	binds
B6	binds

From publication PMC9984195
